# Laboratory results published in the supplement of paper PMC8728848.
# This is one part of the list.
# B1: Protein L(A-C2) (Finegoldia magna), Q51912 (protein)
# chain: ADEPIDLEKLEEKRDKENVGNLPKFDNEVKDGSENPMAKYPDFDDEASTRFETENNEFEEKKVVSDNFFDQSEHPFVENKEETPETPETDSEEEVTIKANLIFANGSTQTAEFKGTFEKATSEAYAYADTLKKDNGEYTVDVADKGYTLNIKFAGKEKTPEEPKEEVTIKANLIYADGKTQTAEFKGTFEEATAEAYRYADALKKDNGEYTVDVADKGYTLNIKFAGKEKTPEEPKEEVTIKANLIYADGKTQTAEFKGTFEEATAEAYRYADLLAKENGKYTVDVADKGYTLNIKFAGKEKTPEEPKEEVTIKANLIYADGKTQTAEFKGTFAEATAEAYRYADLLAKENGKYTADLEDGGYTINIRFAGKKVDEKPEEKEQVTIKENIYFEDGTVQTATFKGTFAEATAEAYRYADLLSKEHGKYTADLEDGGYTINIRFAGKEEPEETPEKPEVQDGYASYEEAEAAAKEALKNDDVNKSYTIRQGADGRYYYVLSPVEAEEEKPEAQNGYATYEEAEAAAKKALENDPINKSYSIRQGADGRYYYVLSPVEAE
# Tests used:
# Assay in all cases: glycan array binding signal (z-score within array); higher = stronger binding
# Settings in all cases: glycan notation: IUPAC condensed, linker removed
# Fuc(a1-2)Gal = target: Fuc(a1-2)Gal
# In short: (§1)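 Negative Z-scores can be read as non-binding. The Z-score is calculated within each array and then averaged across arrays of one protein sequence at different concentrations or buffers and across linkers. Arrays, 3228 in all, were curated from the Consortium for Functional Glycomics database and kept only where the protein sequence was available.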
# Fuc(a1-2)Gal(b1-3)GalNAc = target: Fuc(a1-2)Gal(b1-3)GalNAc
# In short: as §1
# [1] = target: Fuc(a1-2)Gal(b1-3)GalNAc(a1-3)[Fuc(a1-2)]Gal(b1-4)Glc
# In short: as §1
# [2] = target: Fuc(a1-2)Gal(b1-3)GalNAc(a1-3)[Fuc(a1-2)]Gal(b1-4)GlcNAc
# In short: as §1
# [3] = target: Fuc(a1-2)Gal(b1-3)GalNAc(b1-3)Gal
# In short: as §1
# [4] = target: Fuc(a1-2)Gal(b1-3)GalNAc(b1-3)Gal(a1-4)Gal(b1-4)Glc
# In short: as §1
# [5] = target: Fuc(a1-2)Gal(b1-3)GalNAc(b1-4)[Neu5Ac(a2-3)]Gal(b1-4)Glc
# In short: as §1
# Fuc(a1-2)Gal(b1-3)GlcNAc = target: Fuc(a1-2)Gal(b1-3)GlcNAc
# In short: as §1
# [6] = target: Fuc(a1-2)Gal(b1-3)GlcNAc(b1-2)Man(a1-3)[Fuc(a1-2)Gal(b1-3)GlcNAc(b1-2)Man(a1-6)]Man(b1-4)GlcNAc(b1-4)GlcNAc
# In short: as §1
# [7] = target: Fuc(a1-2)Gal(b1-3)GlcNAc(b1-2)Man(a1-3)[Fuc(a1-2)Gal(b1-3)GlcNAc(b1-2)Man(a1-6)]Man(b1-4)GlcNAc(b1-4)[Fuc(a1-6)]GlcNAc
# In short: as §1
# [8] = target: Fuc(a1-2)Gal(b1-3)GlcNAc(b1-3)Gal(b1-4)Glc
# In short: as §1
# [9] = target: Fuc(a1-2)Gal(b1-3)GlcNAc(b1-3)GalNAc
# In short: as §1
# [10] = target: Fuc(a1-2)Gal(b1-3)GlcNAc(b1-3)[Fuc(a1-2)Gal(b1-3)GlcNAc(b1-6)]GalNAc
# In short: as §1
# [11] = target: Fuc(a1-2)Gal(b1-3)GlcNAc(b1-3)[Gal(b1-4)GlcNAc(b1-6)]Gal(b1-4)Glc
# In short: as §1
# [12] = target: Fuc(a1-2)Gal(b1-3)GlcNAc(b1-3)[Neu5Ac(a2-6)Gal(b1-4)GlcNAc(b1-6)]Gal(b1-4)Glc
# In short: as §1
# [13] = target: Fuc(a1-2)Gal(b1-3)GlcNAc6S
# In short: as §1
# [14] = target: Fuc(a1-2)Gal(b1-3)[Fuc(a1-4)]GlcNAc
# In short: as §1
# [15] = target: Fuc(a1-2)Gal(b1-3)[Fuc(a1-4)]GlcNAc(b1-2)Man(a1-3)[Fuc(a1-2)Gal(b1-3)[Fuc(a1-4)]GlcNAc(b1-2)Man(a1-3)]Man(b1-4)GlcNAc(b1-4)GlcNAc
# In short: as §1
# [16] = target: Fuc(a1-2)Gal(b1-3)[Fuc(a1-4)]GlcNAc(b1-2)Man(a1-3)[Fuc(a1-2)Gal(b1-3)[Fuc(a1-4)]GlcNAc(b1-2)Man(a1-6)]Man(b1-4)GlcNAc(b1-4)[Fuc(a1-6)]GlcNAc(b1-4)[Fuc(a1-6)]GlcNAc
# In short: as §1
# [17] = target: Fuc(a1-2)Gal(b1-3)[Fuc(a1-4)]GlcNAc(b1-3)[Fuc(a1-3)[Gal(b1-4)]GlcNAc(b1-6)]Gal(b1-4)Glc
# In short: as §1
# [18] = target: Fuc(a1-2)Gal(b1-3)[Fuc(a1-4)]GlcNAc(b1-3)[Gal(b1-4)GlcNAc(b1-6)]Gal(b1-4)Glc
# In short: as §1
# [19] = target: Fuc(a1-2)Gal(b1-4)Fuc(a1-3)]GlcNAc(b1-2)Man(a1-3)[Fuc(a1-2)Gal(b1-4)[Fuc(a1-3)]GlcNAc(b1-2)Man(a1-6)]Man(b1-4)GlcNAc(b1-4)GlcNAc
# In short: as §1
# Fuc(a1-2)Gal(b1-4)Glc = target: Fuc(a1-2)Gal(b1-4)Glc
# In short: as §1
# Fuc(a1-2)Gal(b1-4)Glc6S = target: Fuc(a1-2)Gal(b1-4)Glc6S
# In short: as §1
# Fuc(a1-2)Gal(b1-4)GlcNAc = target: Fuc(a1-2)Gal(b1-4)GlcNAc
# In short: as §1
# [20] = target: Fuc(a1-2)Gal(b1-4)GlcNAc(b1-2)Man
# In short: as §1
# [21] = target: Fuc(a1-2)Gal(b1-4)GlcNAc(b1-2)Man(a1-3)[Fuc(a1-2)Gal(b1-4)GlcNAc(b1-2)Man(a1-6)]Man(b1-4)GlcNAc(b1-4)GlcNAc
# In short: as §1
# [22] = target: Fuc(a1-2)Gal(b1-4)GlcNAc(b1-2)Man(a1-3)[Fuc(a1-2)Gal(b1-4)GlcNAc(b1-2)Man(a1-6)]Man(b1-4)GlcNAc(b1-4)[Fuc(a1-6)]GlcNAc
# In short: as §1
# [23] = target: Fuc(a1-2)Gal(b1-4)GlcNAc(b1-2)[Fuc(a1-2)Gal(b1-4)GlcNAc(b1-4)]Man(a1-3)[Fuc(a1-2)Gal(b1-4)GlcNAc(b1-2)Man(a1-6)]Man(b1-4)GlcNAc(b1-4)GlcNAc
# In short: as §1
# [24] = target: Fuc(a1-2)Gal(b1-4)GlcNAc(b1-3)Gal(b1-4)GlcNAc
# In short: as §1
binder,measurement,setting,value
B1,glycan array binding signal (z-score),Fuc(a1-2)Gal,-0.528
same,glycan array binding signal (z-score),Fuc(a1-2)Gal(b1-3)GalNAc,-0.127
same,glycan array binding signal (z-score),[1],0.138
same,glycan array binding signal (z-score),[2],-0.969
same,glycan array binding signal (z-score),[3],-0.661
same,glycan array binding signal (z-score),[4],-0.125
same,glycan array binding signal (z-score),[5],-0.488
same,glycan array binding signal (z-score),Fuc(a1-2)Gal(b1-3)GlcNAc,-0.907
same,glycan array binding signal (z-score),[6],1.16
same,glycan array binding signal (z-score),[7],0.295
same,glycan array binding signal (z-score),[8],-0.616
same,glycan array binding signal (z-score),[9],0.095
same,glycan array binding signal (z-score),[10],-0.197
same,glycan array binding signal (z-score),[11],-0.355
same,glycan array binding signal (z-score),[12],0.149
same,glycan array binding signal (z-score),[13],0.57
same,glycan array binding signal (z-score),[14],-1.02
same,glycan array binding signal (z-score),[15],1.58
same,glycan array binding signal (z-score),[16],0.13
same,glycan array binding signal (z-score),[17],-0.496
same,glycan array binding signal (z-score),[18],-0.773
same,glycan array binding signal (z-score),[19],2.19
same,glycan array binding signal (z-score),Fuc(a1-2)Gal(b1-4)Glc,0.513
same,glycan array binding signal (z-score),Fuc(a1-2)Gal(b1-4)Glc6S,-0.321
same,glycan array binding signal (z-score),Fuc(a1-2)Gal(b1-4)GlcNAc,-0.6
same,glycan array binding signal (z-score),[20],0.144
same,glycan array binding signal (z-score),[21],0.851
same,glycan array binding signal (z-score),[22],-0.1
same,glycan array binding signal (z-score),[23],0.469
same,glycan array binding signal (z-score),[24],-0.699

# 2 records picked at random from the list so far:
binder,measurement,setting,value
B1,glycan array binding signal (z-score),[5],-0.488
same,glycan array binding signal (z-score),[9],0.095
